# Results: PubChem BioAssay AID504775 (Broad Institute, 2011)
# Out of some 320,000 compounds screened, about 310 (0.097%) were called active. This list was built around the results that the source calls inconclusive (neither active nor inactive); the mix of calls is not that of the screen.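 How the source made its calls: active means mean replicate activation of at least 60% and every replicate at or above 60%; inconclusive means mean or all-replicate condition met, but not both; inactive means mean below 60% and not all replicates reaching 60%.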
# Experiment: enhancers of HDL lipid transfer via mSR-BI – ldlA[mSR-BI] CHO cells, DiI fluorescence, primary screen (AID 504775);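 further: 0% = median plate neutral-control signal and 100% = twice that signal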
# Conditions: DiI-HDL uptake fluorescence, 3 h, at 12.5 µM, stronger effect = higher value, 100 = double the neutral-control signal
# Summary of the method: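 Material – SR-BI-overexpressing, LDLR-lacking CHO cells · Medium – BSA-supplemented, HEPES-buffered Ham's F12, pH 7.4 · Doses – single concentration · Times – compound with DiI-HDL co-incubation, 3 h at 37 °C · Measured by – bottom-read fluorescence, 550/595 nm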
row,Structure (SMILES),activation
1,O=C(NCCOc1ccccc1Cl)c1ccc2c(c1)S(=O)(=O)c1cc(Cl)ccc1C2=O,inactive: -18.9%
2,C=CCN1C(=O)c2ccc(C(=O)N(CC)CC(=O)Nc3c(F)cccc3F)cc2C1=O,inactive: 17.9%
3,Cc1onc(-c2ccccc2)c1C(=O)NCc1ccccn1,inconclusive: 122%
4,CCn1c(=S)[nH]c2sc3c(c2c1=O)CCCC3,inactive: 11.4%
5,CCCCn1nnnc1SCC(=O)Nc1ccc2c(c1)OCO2,inconclusive: 181%
6,Nc1c(Br)c(=O)[nH]c(=O)n1-c1ccccc1,inconclusive: 82.1%
7,CC(C)[C@H](NC(=O)c1ccco1)C(=O)OCC(=O)c1ccc2c(c1)NC(=O)CO2,inactive: 20.2%
8,C=CCn1c(=N)c(S(=O)(=O)c2ccc(C)c(C)c2)cc2c(=O)n3ccccc3nc21,inconclusive: 153%
9,Cc1ccc(NC(=O)CN2CCOCC2)cc1C,inconclusive: 190%
10,CC(C)CN(CCCNC(=O)CN1C(=O)COc2ccc(S(=O)(=O)N3CCCCCC3)cc21)CC(C)C,inconclusive: 67.5%
11,c1ccc2[nH]c(NCCN3CCOCC3)nc2c1,active: 62.8%
12,CN(C)CC(O)COC(c1ccc(Cl)cc1)c1ccc(Cl)cc1 (stereo not given),inconclusive: 136%
13,Cc1c(C(=O)N2CCC[C@H]2C(N)=O)oc2c(F)cccc12,inconclusive: 245%
14,CC1=C(C(=O)OC(C)(C)C)C(c2ccc3ccccc3c2)NC(=O)N1C (stereo not given),inconclusive: 152%
15,CN(C)S(=O)(=O)c1ccc(NC(=O)N2CCOCC2)cc1,inconclusive: 152%
16,COc1ccc(S(=O)(=O)N2CCCOC2CNC(=O)C(=O)NCCCn2ccnc2)cc1OC (stereo not given),active: 70.5%
17,COc1ccc(C(=O)N=C2SC3CS(=O)(=O)CC3N2Cc2ccc(F)cc2)cc1 (stereo not given),inactive: -18.5%
18,COC(=O)CSc1nc2nc(-c3cccs3)cc(C(F)(F)F)c2c(=O)[nH]1,inconclusive: 132%
19,CCC(=O)Nc1ccc(-c2cc(-c3ccccc3)nc(-c3ccc(NC(=O)CC)cc3)n2)cc1,active: 103%
20,CC1=CC(C)(C)Nc2ccc(OC(=O)C(Cc3ccccc3)N3C(=O)C4CCCCC4C3=O)cc21 (stereo not given),active: 62.9%
21,O=C(Nc1ccc2c(c1)OCO2)c1cc(-c2cccnc2)nc2ccccc12,inactive: -45.5%
22,CCOc1ccc(S(=O)(=O)N2CCCCC2)cc1NC(=O)C1CCC1,inactive: 13.6%
23,O=c1c(Br)c(N2CCCCC2)cnn1-c1ccccc1,inactive: -6.25%

row,Structure (SMILES),activation
1,S=c1nc(NCc2ccc3c(c2)OCO3)c2ccccc2[nH]1,inactive: 9.87%
2,CC(=O)OC1COC(n2ccc3cc([N+](=O)[O-])ccc32)C(OC(C)=O)C1OC(C)=O (stereo not given),inconclusive: 159%
3,CC1(C(=O)OCC(=O)NC(=O)NCc2ccccc2)CC1(Cl)Cl (stereo not given),active: 62.5%
4,O=C(NCc1cccnc1)/C(=C/c1ccc(Cl)cc1)NC(=O)c1ccccc1,inconclusive: 184%
5,O=C(N/N=C/c1cccc(Oc2ccccc2)c1)c1ccncc1,inactive: 2.45%
6,CN1\C(=C/C=C/C=C/C=[N+](C)C)C(C)(C)c2ccccc21,active: 182%
7,CCN(CC)CCCN1C(=O)C(=O)/C(=C(/O)c2ccc3c(c2)OCCO3)C1c1ccco1 (stereo not given),inconclusive: 414%
8,COC(=O)c1ccc(NC(=O)CSc2nnc(C3CC3)n2C)cc1,inconclusive: 263%
9,OC(c1cc(C(F)(F)F)nc2c(Cl)cc(Cl)cc12)C1CCCCN1 (stereo not given),active: 65.6%
10,O=Cc1cc2ccccc2nc1SCCCF,inconclusive: 110%
11,COc1ccc(OC)c(NC(=O)c2ccc(OCC(=O)N3CCOCC3)c(OC)c2)c1,inactive: -72.5%
12,OCCCn1c(-c2ccccc2)csc1=Nc1ccccc1,inconclusive: 212%
13,CCCN(CCC)CCCNC(=O)c1ccc(CS(=O)(=O)c2c(Cl)cccc2Cl)o1,inconclusive: 64.9%
14,Cc1ccnc(NS(=O)(=O)c2ccc(NC(=O)CCS(=O)(=O)c3ccccc3)cc2)n1,inconclusive: 65.4%
15,Cc1ccc(S(=O)(=O)n2nc(OC(=O)c3cccc(F)c3)cc2N)cc1,inconclusive: 156%
16,COC(=O)C1=C(C)N(c2cccc3ccccc23)C(=O)C1,inconclusive: 248%
17,CCCC1=C(C(=O)OCC)C(c2ccc(O)cc2)n2ncnc2N1 (stereo not given),inconclusive: 62.7%
18,CCCOC(=O)c1ccc(Oc2c(-c3ccc(O)cc3O)n[nH]c2C)cc1,inconclusive: 88.7%
19,CC(=O)Nc1cccc(CCc2nc3ccccc3[nH]2)c1,inconclusive: 135%
20,O=C(/C=C\c1ccc(-c2cccc([N+](=O)[O-])c2)o1)N1CCOCC1,inactive: -16.5%
21,O=C1N[C@@H](c2ccccc2)COC(=O)[C@H](Cc2ccc(F)cc2)CC/C=C/C[C@H]1CC(=O)N(CCO)Cc1ccccc1,inconclusive: 62.4%
22,Cc1ccc(OCc2cc(C(=O)N3CCN(C)C[C@@H]3c3ccccc3)no2)cc1C,inactive: -52.4%
23,O=C1c2cccc(OCc3ccc(F)cc3)c2CCN1Cc1ccccc1,inactive: -25.4%

row,Structure (SMILES),activation
1,CCSc1ccc([C@@H]2[C@@H]3C(=O)N(C)C(=O)[C@@H]3[C@]3(C(=O)OC)CCCCN23)cc1OC,active: 67.4%
2,Cc1ccc(S(=O)(=O)c2cc3ccccc3oc2=O)cc1,inconclusive: 86.5%
3,CC1CCN(S(=O)(=O)c2cc3c4c(c2)CCN4C(=O)CC3)CC1,inactive: 22.1%
4,O=C(COC(=O)C1CCCCC1)Nc1cccc(Br)c1,active: 63.5%
5,COc1ccc2cc1Oc1ccc(cc1)C[C@H]1c3cc(c(OC)cc3CCN1C)Oc1c(OC)c(OC)cc3c1[C@H](C2)N(C)CC3,inactive: 20%
6,CCc1ccc2c(c1)C(C)=CC(C)(C)N2,inconclusive: 74.7%
7,CCC(CC)=NNc1cccc([N+](=O)[O-])c1,inactive: -31.9%
8,Cc1nc2ncnn2c(C)c1CCC(=O)O,inconclusive: 61.3%
9,CCCN=CC1=C(O)CC(c2ccccc2)CC1=O (stereo not given),inconclusive: 75.1%
10,CCOC(=O)C(=O)NC12CC3CC(CC(C3)C1)C2,active: 63.1%
11,Cc1cc(C)n2nc(SC3CCCCN(C(=O)c4ccc(F)cc4)C3=O)nc2n1 (stereo not given),inconclusive: 231%
12,COc1ccc(/C=N/NC(=O)c2cccc([N+](=O)[O-])c2)cc1OS(=O)(=O)c1ccc(C)cc1,inconclusive: 80%
13,CCN1CCCC1Cn1cnc2c([nH]c3cc(OC)ccc32)c1=O (stereo not given),inconclusive: 118%
14,CCOc1ccccc1NC(=O)Cn1c(C)cc(COC)c(C#N)c1=O,inconclusive: 179%
15,CC1CCN(S(=O)(=O)c2ccc3c(c2)N(CC(=O)NCCN2C(C)CCCC2C)C(=O)CS3)CC1 (stereo not given),inconclusive: 60.7%
16,Cc1cccc(S(=O)(=O)NCCc2cn3ccccc3n2)c1,inactive: 29.9%
17,CCCCN(C(=O)CCSc1ccc(F)cc1)c1c(N)n(Cc2ccccc2)c(=O)[nH]c1=O,inconclusive: 74.4%
18,CCCNC(=O)NNC(=O)c1ccc(F)cc1,inconclusive: 119%
19,COc1ccc(NC(=O)CN(C)C2=NS(=O)(=O)c3ccccc32)cc1Cl,inconclusive: 94.2%
20,CCNc1nc(OC)nc(SCC(N)=O)n1,inconclusive: 81.9%
21,COc1cccc2sc(N3CCN(C(=O)c4ccco4)CC3)nc12,inconclusive: 99.3%
22,N#Cc1cc(S(=O)(=O)c2ccccc2)c(N)[nH]c1=O,inconclusive: 89.4%
23,COc1ccccc1N(CN1CCCC1=O)C(=O)c1ccccc1F,inconclusive: 60.2%

# A run of entries of the results above:
row,Structure (SMILES),activation
2,C=CCN1C(=O)c2ccc(C(=O)N(CC)CC(=O)Nc3c(F)cccc3F)cc2C1=O,inactive: 17.9%
3,Cc1onc(-c2ccccc2)c1C(=O)NCc1ccccn1,inconclusive: 122%
4,CCn1c(=S)[nH]c2sc3c(c2c1=O)CCCC3,inactive: 11.4%
5,CCCCn1nnnc1SCC(=O)Nc1ccc2c(c1)OCO2,inconclusive: 181%
6,Nc1c(Br)c(=O)[nH]c(=O)n1-c1ccccc1,inconclusive: 82.1%

# (cont.)

row,Structure (SMILES),activation
1,CC(=O)Nc1cccc(OCC(=O)Nc2cccc(S(=O)(=O)N3CCCC3)c2)c1,active: 449%
2,COc1ccc(NC(=O)N2CCOCC2)cc1OC,inconclusive: 99%
3,O=C(CN1CCC(c2nc3ccccc3s2)CC1)NCc1ccccc1,inactive: -42.1%
4,COc1cc(-n2c(C)nc3cc(C(=O)NCC4CCCO4)ccc32)cc(OC)c1OC (stereo not given),inconclusive: 60.9%
5,Cc1cccc(N2C(=O)c3cccc4c(N)ccc(c34)C2=O)c1,inactive: 5.88%
6,O=C(COc1ccc(Br)cc1)NCCCn1ccnc1,inconclusive: 68.2%
7,Cc1cc(Oc2ccc(=O)n(C)n2)nc(Oc2ccc(=O)n(C)n2)n1,active: 81.9%
8,COc1ccc(S(=O)(=O)N2CCOCC2)cc1NC(=O)CSc1nc(C)c(C)c(C)n1,inconclusive: 75.7%
9,CCCn1nnnc1SCC(=O)N1CCCC1,inconclusive: 80.8%
10,O=C(NNc1ccccc1)NC(Cc1ccccc1)C(=O)O (stereo not given),inconclusive: 107%
11,O=c1[nH]c(=S)[nH]c2c1C(c1ccc(Br)cc1)c1c([nH]c(=S)[nH]c1=O)O2,inconclusive: 360%
12,CC(C)c1ccc2[nH]c(O)c(N=NC(=O)c3cccc(S(=O)(=O)Nc4ccccc4Cl)c3)c2c1,inactive: -9.89%
13,CCCCCCCc1c(O)nc(SCCN(C)C)[nH]c1=O,active: 272%
14,CC(NC(=O)CN(c1cccc(C(F)(F)F)c1)S(C)(=O)=O)c1ccccc1 (stereo not given),inactive: 6.02%
15,CC(=O)Nc1ccc(NC(=O)COC(=O)COc2ccc3ccccc3c2)cc1,inactive: 11.3%
16,CCCCCCCCO,inconclusive: 74.3%
17,O=[N+]([O-])c1cccc(OCCCN2CCC(Cc3ccccc3)CC2)c1,inconclusive: 102%
18,CCOCCCNC(=O)C(c1ccc(Cl)cc1)N(Cc1ccc2c(c1)OCO2)C(=O)CNC(C)=O (stereo not given),inactive: 8.49%
19,O=C(/C=C/c1cccc([N+](=O)[O-])c1)NCCN1CCOCC1,inconclusive: 111%
20,CC1CCCC(NC(=O)CCn2c(=S)oc3ccccc32)C1C (stereo not given),inconclusive: 153%
21,CC(C)COC(=O)Cc1c(O)c2ccccc2[nH]c1=O,inconclusive: 60.1%
